# Assay results published in the supplement of paper PMC6411743.
# ± gives the standard deviation of the averaged measurements. This is a selection; strong and weak results do not stand in their true shares.
# Tests used:
# Assay in all cases: NP40-soluble protein abundance relative to vehicle (solubility fold change) (ratio); higher = more soluble protein in presence of AMP-PNP
# [1] = biological target: T1, UniProt Q8IX18 and related entries
# T1 sequence (whole entry): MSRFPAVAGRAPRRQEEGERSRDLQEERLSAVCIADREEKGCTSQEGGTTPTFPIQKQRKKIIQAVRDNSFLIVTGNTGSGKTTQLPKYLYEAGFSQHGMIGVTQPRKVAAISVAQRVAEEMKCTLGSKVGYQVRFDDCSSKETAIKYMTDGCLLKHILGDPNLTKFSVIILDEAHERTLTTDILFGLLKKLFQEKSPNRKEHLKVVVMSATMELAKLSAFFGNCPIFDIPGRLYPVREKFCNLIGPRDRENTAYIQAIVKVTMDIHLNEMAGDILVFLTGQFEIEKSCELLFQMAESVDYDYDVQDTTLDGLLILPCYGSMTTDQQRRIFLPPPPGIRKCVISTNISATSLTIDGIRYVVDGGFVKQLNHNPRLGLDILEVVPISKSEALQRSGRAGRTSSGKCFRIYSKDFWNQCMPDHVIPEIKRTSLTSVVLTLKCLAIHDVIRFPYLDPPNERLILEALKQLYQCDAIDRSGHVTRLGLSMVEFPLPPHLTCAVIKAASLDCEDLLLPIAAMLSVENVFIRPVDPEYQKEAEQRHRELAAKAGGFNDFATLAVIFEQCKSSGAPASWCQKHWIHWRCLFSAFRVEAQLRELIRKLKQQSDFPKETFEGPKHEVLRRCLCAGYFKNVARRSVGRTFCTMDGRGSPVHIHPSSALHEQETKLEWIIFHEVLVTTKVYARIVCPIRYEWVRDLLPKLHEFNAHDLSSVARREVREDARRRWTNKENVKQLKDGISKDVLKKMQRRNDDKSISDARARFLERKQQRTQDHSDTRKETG
# Summary of the method: (§1)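 Jurkat crude lysate (Dounce-homogenised) was treated with eight concentrations from 0.1 to 10 mM for 10 min at room temperature, then 3 min at 37 °C. It was solubilised with 0.8% NP40 and benzonase (60 min, 4 °C) and ultracentrifuged, and the supernatant was TMT-labelled for LC-MS/MS. Intensities were vsn-normalised, and the value is the fold change against the NP40-processed vehicle per replicate, from three independent experiments.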
# UniProt Q8N0Z3 = biological target: T2, UniProt Q8N0Z3
# T2 sequence (whole entry): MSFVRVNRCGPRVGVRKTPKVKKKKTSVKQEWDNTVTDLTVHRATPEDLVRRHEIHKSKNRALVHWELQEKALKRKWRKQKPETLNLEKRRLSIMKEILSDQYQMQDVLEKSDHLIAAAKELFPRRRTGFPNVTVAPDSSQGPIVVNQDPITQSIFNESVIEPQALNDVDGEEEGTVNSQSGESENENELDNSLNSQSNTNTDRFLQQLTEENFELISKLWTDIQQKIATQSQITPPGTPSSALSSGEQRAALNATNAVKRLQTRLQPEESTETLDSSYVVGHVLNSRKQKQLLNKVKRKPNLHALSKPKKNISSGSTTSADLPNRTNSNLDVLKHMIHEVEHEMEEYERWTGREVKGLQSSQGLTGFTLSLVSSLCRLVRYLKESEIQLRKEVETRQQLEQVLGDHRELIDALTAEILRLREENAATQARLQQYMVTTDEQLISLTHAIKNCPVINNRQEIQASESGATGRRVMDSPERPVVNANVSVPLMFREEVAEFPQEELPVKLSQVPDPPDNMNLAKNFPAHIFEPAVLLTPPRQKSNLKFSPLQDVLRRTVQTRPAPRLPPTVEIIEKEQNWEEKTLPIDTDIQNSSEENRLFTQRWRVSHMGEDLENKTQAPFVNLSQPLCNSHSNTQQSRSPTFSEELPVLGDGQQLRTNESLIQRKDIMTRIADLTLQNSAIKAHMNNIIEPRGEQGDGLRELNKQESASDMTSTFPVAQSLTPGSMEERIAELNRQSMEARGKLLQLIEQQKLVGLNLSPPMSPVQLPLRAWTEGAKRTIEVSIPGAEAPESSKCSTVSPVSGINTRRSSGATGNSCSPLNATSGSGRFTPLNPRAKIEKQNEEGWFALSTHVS
# Summary of the method: as §1
# [2] = biological target: T3, UniProt Q8N4Q1 and related entries
# T3 sequence (whole entry): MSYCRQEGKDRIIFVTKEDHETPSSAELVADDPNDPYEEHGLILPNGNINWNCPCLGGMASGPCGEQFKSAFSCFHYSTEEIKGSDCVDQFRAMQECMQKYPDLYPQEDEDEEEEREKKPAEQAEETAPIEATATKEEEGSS
# Summary of the method: as §1
# [3] = biological target: T4, UniProt Q8N573 and related entries
# T4 sequence (whole entry): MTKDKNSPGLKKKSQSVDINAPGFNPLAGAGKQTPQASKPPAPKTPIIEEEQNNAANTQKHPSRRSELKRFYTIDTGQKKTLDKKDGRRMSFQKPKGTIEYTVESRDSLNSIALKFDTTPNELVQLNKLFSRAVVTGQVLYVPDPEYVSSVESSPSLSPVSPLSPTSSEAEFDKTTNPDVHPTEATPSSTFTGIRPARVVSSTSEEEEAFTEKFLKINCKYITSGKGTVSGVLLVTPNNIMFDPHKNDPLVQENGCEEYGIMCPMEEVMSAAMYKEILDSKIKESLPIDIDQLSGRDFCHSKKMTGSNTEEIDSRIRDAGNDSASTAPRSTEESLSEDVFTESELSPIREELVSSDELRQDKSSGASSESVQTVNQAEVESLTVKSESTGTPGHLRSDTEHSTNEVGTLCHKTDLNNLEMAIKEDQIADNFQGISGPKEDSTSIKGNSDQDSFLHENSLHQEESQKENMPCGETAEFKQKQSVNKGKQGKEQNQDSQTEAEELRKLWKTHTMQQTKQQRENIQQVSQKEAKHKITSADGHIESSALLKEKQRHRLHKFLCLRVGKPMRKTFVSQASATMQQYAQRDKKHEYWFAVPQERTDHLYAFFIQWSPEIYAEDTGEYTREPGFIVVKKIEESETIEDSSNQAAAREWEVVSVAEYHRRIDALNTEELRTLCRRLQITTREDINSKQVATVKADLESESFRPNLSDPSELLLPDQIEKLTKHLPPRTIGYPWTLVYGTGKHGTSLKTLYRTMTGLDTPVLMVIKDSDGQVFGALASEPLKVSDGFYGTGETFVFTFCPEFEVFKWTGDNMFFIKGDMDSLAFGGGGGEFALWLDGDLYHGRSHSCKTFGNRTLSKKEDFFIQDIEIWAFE
# Summary of the method: as §1
# [4] = biological target: T5, UniProt Q8N5A5 and related entries
# T5 sequence (whole entry): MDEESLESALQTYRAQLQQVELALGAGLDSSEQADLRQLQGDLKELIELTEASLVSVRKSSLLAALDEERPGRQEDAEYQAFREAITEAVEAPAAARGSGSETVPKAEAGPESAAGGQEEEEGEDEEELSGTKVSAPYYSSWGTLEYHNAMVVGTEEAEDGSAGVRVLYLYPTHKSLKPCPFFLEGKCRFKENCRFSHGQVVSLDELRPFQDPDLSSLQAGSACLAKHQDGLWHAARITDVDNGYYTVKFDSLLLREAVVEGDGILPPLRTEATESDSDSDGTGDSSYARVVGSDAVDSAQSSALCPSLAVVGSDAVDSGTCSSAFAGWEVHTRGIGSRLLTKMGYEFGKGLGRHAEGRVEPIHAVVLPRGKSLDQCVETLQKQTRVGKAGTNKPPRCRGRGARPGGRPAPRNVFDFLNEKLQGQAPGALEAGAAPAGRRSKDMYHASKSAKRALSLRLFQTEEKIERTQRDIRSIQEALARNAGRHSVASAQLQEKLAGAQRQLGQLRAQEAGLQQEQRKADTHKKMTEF
# Summary of the method: as §1
compound,measurement,setting,value
Nc1ncnc2c1ncn2[C@@H]1O[C@H](COP(=O)(O)OP(=O)(O)NP(=O)(O)O)[C@@H](O)[C@H]1O [adenylyl imidodiphosphate],NP40-soluble protein abundance,[1]; concentration: 1mM,0.985 ± 0.082
same,NP40-soluble protein abundance,[1]; concentration: 2mM,0.975 ± 0.057
same,NP40-soluble protein abundance,[1]; concentration: 4mM,0.983 ± 0.061
same,NP40-soluble protein abundance,[1]; concentration: 6mM,0.946 ± 0.043
same,NP40-soluble protein abundance,[1]; concentration: 8mM,0.981 ± 0.024
same,NP40-soluble protein abundance,[1]; concentration: 10mM,0.954 ± 0.026
same,NP40-soluble protein abundance,UniProt Q8N0Z3; concentration: 1mM,0.943 ± 0.051
same,NP40-soluble protein abundance,UniProt Q8N0Z3; concentration: 2mM,0.976 ± 0.024
same,NP40-soluble protein abundance,UniProt Q8N0Z3; concentration: 4mM,0.959 ± 0.03
same,NP40-soluble protein abundance,UniProt Q8N0Z3; concentration: 6mM,0.955 ± 0.027
same,NP40-soluble protein abundance,UniProt Q8N0Z3; concentration: 8mM,0.957 ± 0.026
same,NP40-soluble protein abundance,UniProt Q8N0Z3; concentration: 10mM,0.964 ± 0.02
same,NP40-soluble protein abundance,[2]; concentration: 1mM,1.04 ± 0.061
same,NP40-soluble protein abundance,[2]; concentration: 2mM,1.1 ± 0.081
same,NP40-soluble protein abundance,[2]; concentration: 4mM,0.988 ± 0.066
same,NP40-soluble protein abundance,[2]; concentration: 6mM,0.974 ± 0.059
same,NP40-soluble protein abundance,[2]; concentration: 8mM,0.921 ± 0.027
same,NP40-soluble protein abundance,[2]; concentration: 10mM,0.947 ± 0.09
same,NP40-soluble protein abundance,[3]; concentration: 1mM,0.968 ± 0.0097
same,NP40-soluble protein abundance,[3]; concentration: 2mM,1.01 ± 0.011
same,NP40-soluble protein abundance,[3]; concentration: 4mM,1 ± 0.029
same,NP40-soluble protein abundance,[3]; concentration: 6mM,0.957 ± 0.013
same,NP40-soluble protein abundance,[3]; concentration: 8mM,0.937 ± 0.016
same,NP40-soluble protein abundance,[3]; concentration: 10mM,0.966 ± 0.045
same,NP40-soluble protein abundance,[4]; concentration: 1mM,1.07 ± 0.056
same,NP40-soluble protein abundance,[4]; concentration: 2mM,1.16 ± 0.054
same,NP40-soluble protein abundance,[4]; concentration: 4mM,1.14 ± 0.04
same,NP40-soluble protein abundance,[4]; concentration: 6mM,1.15 ± 0.087
same,NP40-soluble protein abundance,[4]; concentration: 8mM,1.1 ± 0.032
same,NP40-soluble protein abundance,[4]; concentration: 10mM,1.174 ± 0.0064

# A second format for some results above.
compound | measurement | setting | value
Nc1ncnc2c1ncn2[C@@H]1O[C@H](COP(=O)(O)OP(=O)(O)NP(=O)(O)O)[C@@H](O)[C@H]1O [adenylyl imidodiphosphate] | NP40-soluble protein abundance | UniProt Q8N0Z3; concentration: 2mM | 0.976 ± 0.024
same | NP40-soluble protein abundance | UniProt Q8N0Z3; concentration: 4mM | 0.959 ± 0.03
